Measured values: PMC4225485, “The PHD1 finger of KDM5B recognizes unmodified H3K4 during the demethylation of histone H3K4me2/3 by KDM5B” (Protein & Cell, 2014)
Changes are numbered by the printed parent chain. No constants are given. Whether binding was seen depends on the method and setting.

Experiments:
[1] = biological target: T1, PHD1_(KDM5B) W351A mutant (UniProt Q9UGL1); assay: ITC; ITC-200, 20 mmol/L Tris, 150 mmol/L NaCl, 1% Triton X-100, pH 7.5, 25°C; both purified
T1 sequence: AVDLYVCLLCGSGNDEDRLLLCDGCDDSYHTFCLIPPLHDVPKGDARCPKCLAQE

[2] = biological target: T2, PHD1_(KDM5B) L325A mutant (UniProt Q9UGL1); assay: as above
T2 sequence: T1 sequence with L20A, A46W

binding [1]: no binding | binding [2]: no binding
B1: unmodified H3K4 peptide (residues 1-10) (peptide)
peptide: ARTKQTARKS
notes: histone H3 N-terminal tail, residues 1-10; also called H3K4me0; H3K4me0 peptide; source: synthetic peptide, bought: GL Biochem Ltd. (Shanghai, China)
